# Laboratory results as given in PubChem BioAssay (Tox21).
# The chains behind the UniProt entries cited, without tags or fusion partners.
# UniProt P10635, whole entry, looked up: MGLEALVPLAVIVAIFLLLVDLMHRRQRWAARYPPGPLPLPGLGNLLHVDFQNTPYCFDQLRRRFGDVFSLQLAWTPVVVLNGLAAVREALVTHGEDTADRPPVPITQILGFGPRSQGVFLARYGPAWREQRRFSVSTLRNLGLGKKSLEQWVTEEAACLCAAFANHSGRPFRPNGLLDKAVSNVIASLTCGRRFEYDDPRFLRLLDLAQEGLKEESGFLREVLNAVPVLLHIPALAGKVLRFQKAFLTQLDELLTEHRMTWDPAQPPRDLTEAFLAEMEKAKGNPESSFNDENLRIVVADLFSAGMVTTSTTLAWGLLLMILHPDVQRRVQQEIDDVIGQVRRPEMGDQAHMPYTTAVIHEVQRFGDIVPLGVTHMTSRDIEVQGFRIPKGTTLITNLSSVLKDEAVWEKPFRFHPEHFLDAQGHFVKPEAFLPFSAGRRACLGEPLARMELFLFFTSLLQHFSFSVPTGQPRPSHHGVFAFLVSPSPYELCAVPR
# Several values for one entry are separate records, joined by “and”; a condition that tells them apart may be missing. Equal entries are not always repeated. Inconclusive results, whose numbers are uncertain, are shown with a selection of clear calls. Potencies of inconclusive entries are doubtful fits and often do not repeat. Where a structure was tested more than once in an assay, its records may differ in their call. Activity calls are given as the source filed them. Calls come from the whole dose curve; as a rule, active = well fitted inhibition curve with a large enough effect in the repeat runs; inconclusive = weak or mixed curves; inactive = no such curve, though single readings can be large or run the other way.
# Biological target: Cytochrome P450 2D6 (Homo sapiens) (UniProt P10635)
# Test: Cytochrome P450 Family 2 Subfamily D Member 6 (CYP2D6) small molecule antagonists: luciferase reporter qHTS assay (AID 1671196); note: nearly all actives have a fitted effect of over 50% in size
# Conditions: P450-Glo CYP2D6 enzyme assay, luciferin luminescence, 1 h; series mostly up to 115 µM; activity change, negative = inhibition: at the top concentration
# Procedure, shortened: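 Room-temperature luminescent CYP2D6 activity assay: compound preincubated 10 min with enzyme–substrate mix, NADPH-initiated reaction 1 h, detection reagent 20 min before reading.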
# % is set by controls: 0 for no effect and ±100 for the full control effect; potency is the fitted concentration of half-maximal effect.
Compound,Potency,"activity change, negative = inhibition"
Nc1ccccc1C(=O)Oc1ccc2ccccc2c1,inconclusive: 71 µM [inhibitor],
Oc1ccccc1-c1ccccc1,"inconclusive: 39.9 µM [inhibitor, partial curve] and inconclusive: 36.4 µM [inhibitor, partial curve] and inconclusive: 34.7 µM [inhibitor, partial curve]",
O=[N+]([O-])c1ccc(Oc2ccc(Cl)cc2Cl)cc1,"active: 22.6 µM and inconclusive: 63.3 µM [inhibitor, partial curve]",
C[C@]12CCC(=O)C(O)=C1CC[C@@H]1[C@@H]2CC[C@]2(C)C(=O)CC[C@@H]12,"active: 31.7 µM and inconclusive: 30.9 µM [inhibitor, partial curve]",
Nc1ccc(Br)cc1,"inconclusive: 70.9 µM [inhibitor] and inconclusive: 63.3 µM [inhibitor, partial curve]",
O=C(NC(=O)c1c(F)cccc1F)Nc1cc(Cl)c(OC(F)(F)C(F)C(F)(F)F)cc1Cl (stereo not given),inactive,
CC(c1ccc(O)cc1)c1ccc(O)cc1,active: 33.4 µM,
Cl/C=C/CCl,"inconclusive: 56.7 µM [inhibitor, partial curve, poor fit]",
COc1ccc(O)c(C(C)(C)C)c1,"inconclusive: 71.2 µM [inhibitor, partial curve, poor fit] and inconclusive: 71 µM [inhibitor, partial curve, poor fit]",
C[C@]12CC[C@H]3[C@@H](CC[C@@]45O[C@@H]4C(O)=C(C#N)C[C@]35C)[C@@H]1CC[C@@H]2O,inactive,
CCCCOC(=O)COC(=O)c1ccccc1C(=O)OCCCC,"inconclusive: 63 µM [inhibitor] and inconclusive: 35.6 µM [inhibitor, partial curve]",
OCCBr,"inconclusive: 63.4 µM [inhibitor, partial curve]",
Oc1ccccc1Cl,"inconclusive: 63.1 µM [inhibitor, partial curve, poor fit]",
CCC(=O)Nc1ccc(Cl)c(Cl)c1,"active: 36.3 µM and inconclusive: 79.6 µM [inhibitor, partial curve, poor fit]",
COC(=O)Nc1nc2ccccc2[nH]1,inactive,
O=C(CBr)c1ccc(O)cc1,"inconclusive: 71 µM [inhibitor, partial curve]",
COP(=S)(OC)Oc1cc(Cl)c(Cl)cc1Cl,"inconclusive: 35.3 µM [inhibitor, partial curve, poor fit]",
SCc1ccco1,"inconclusive: 35.6 µM [inhibitor, single point]",
O=[N+]([O-])c1ccccc1CCl,"inconclusive: 40.4 µM [inhibitor, partial curve]",
CCOP(=O)(OCC)SCCSCC,"inconclusive: 67.8 µM [inhibitor, partial curve] and inconclusive: 71 µM [inhibitor, partial curve]",
CCC(C)Nc1c([N+](=O)[O-])cc(C(C)(C)C)cc1[N+](=O)[O-] (stereo not given),"inconclusive: 71 µM [inhibitor, partial curve, poor fit]",
c1cncc([C@@H]2CCCCN2)c1,"inconclusive: 50.2 µM [inhibitor, partial curve]",
CC(Cc1ccccc1)NCCn1cnc2c1c(=O)n(C)c(=O)n2C (stereo not given),active: 4.96 µM,
CC1COC2(c3ccccc3Cl)c3cc(Cl)ccc3NC(=O)CN12 (stereo not given),active: 15.5 µM,
C#CC(C)(C)NC(=O)c1cc(Cl)cc(Cl)c1,"inconclusive: 63.9 µM [inhibitor, partial curve, poor fit]",
CON(C)C(=O)Nc1ccc(Cl)c(Cl)c1,"inconclusive: 100 µM [inhibitor, partial curve, poor fit]",
Nc1ccccc1,"inconclusive: 63.3 µM [inhibitor, partial curve]",
Nc1ccc(-c2ccc(N)cc2)cc1,"inconclusive: 62.5 µM [inhibitor, partial curve] and inconclusive: 15.8 µM [inhibitor, partial curve] and inactive",
C[C@@H]1CC2=CC(=O)CC[C@@H]2[C@H]2CC[C@@]3(C)[C@@H](CC[C@]3(C)O)[C@@H]21,,inactive: -7.36% [at 53 µM]
CCCCCCCCCCCCCl,"inconclusive: 35.1 µM [inhibitor, partial curve]",

# Molecules listed so far that contain a tert-butyl group (two):
Compound,Potency,"activity change, negative = inhibition"
COc1ccc(O)c(C(C)(C)C)c1,"inconclusive: 71.2 µM [inhibitor, partial curve, poor fit] and inconclusive: 71 µM [inhibitor, partial curve, poor fit]",
CCC(C)Nc1c([N+](=O)[O-])cc(C(C)(C)C)cc1[N+](=O)[O-] (stereo not given),"inconclusive: 71 µM [inhibitor, partial curve, poor fit]",
